# In PubChem BioAssay (NCATS):
# The inconclusive results got no clear call from the source; some entries with a clear call stand among them for comparison. Potencies beside an inconclusive call are fits to weak or partial responses and may not hold up. The source made the active and inactive calls. Calls come from the whole dose curve; as a rule, active = well fitted curve in the direction sought with a large enough effect; inconclusive = small, poorly fitted or top-dose-only effect, or another doubt; inactive = no such curve, though single readings can be large; an effect the other way counts as inactive or inconclusive.
# Assays:
# [1] = Quantitative High-Throughput drug screen in 47 multiple myeloma cell lines against the NCATS MIPE library collection: JIM3_ECACC cell viability assay (AID 1918963; note: nearly all actives have a fitted effect of over 35% in size); settings: JIM3 myeloma viability, CellTiter-Glo ATP, 48 h; series mostly up to 45.8 µM
# In short: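 We plated 500 myeloma cells per well, pinned in MIPE 4.0 compounds, and incubated for 48 hours at 37C. ATP was then quantified with CellTiter-Glo, with DMSO and media-only wells defining 100% and 0%.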
# [2] = Quantitative High-Throughput drug screen in 47 multiple myeloma cell lines against the NCATS MIPE library collection: JIM1_ECACC cell viability assay (AID 1918964); settings: JIM1 myeloma viability, CellTiter-Glo ATP luminescence, 48 h; viability (% of DMSO): at 45.8 µM (top of the series)
# In short: (§1)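 CellTiter-Glo luminescence (ATP) after 48 h compound exposure, 37C/5% CO2; 500 cells/well; MIPE 4.0 approved/investigational drugs pinned in; DMSO = 100%, media only = 0% viability.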
# [3] = Quantitative High-Throughput drug screen in 47 multiple myeloma cell lines against the NCATS MIPE library collection: JJN3_DSMZ cell viability assay (AID 1918966; note: nearly all actives have a fitted effect of over 50% in size); settings: JJN3 myeloma cells viability, CellTiter-Glo ATP, 48 h; series mostly up to 45.8 µM
# In short: as §1
# [4] = Quantitative High-Throughput drug screen in 47 multiple myeloma cell lines against the NCATS MIPE library collection: H1112_PLB cell viability assay (AID 1918967; note: nearly all actives have a fitted effect of over 30% in size); settings: H1112 myeloma cells viability, ATP luminescence, 48 h; viability: at 45.8 µM (top of the series)
# In short: as §1
# [5] = Quantitative High-Throughput drug screen in 47 multiple myeloma cell lines against the NCATS MIPE library collection: KMS27_JCRB cell viability assay (AID 1918970); settings: KMS27 myeloma cells, CellTiter-Glo ATP viability, 48 h; viability (% of DMSO): at 45.8 µM (top of the series); note: nearly all actives have a fitted effect of over 30% in size
# In short: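 KMS27_JCRB myeloma cells, 500 per well, exposed 48 h at 37 C, 5% CO2 to MIPE 4.0 compounds. Viability from ATP by CellTiter-Glo luminescence, normalized to DMSO (100%) and medium-only (0%) wells.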
# [6] = Quantitative High-Throughput drug screen in 47 multiple myeloma cell lines against the NCATS MIPE library collection: KMS12BM_JCRB cell viability assay (AID 1918971); note: nearly all actives have a fitted effect of over 35% in size
# In short: (§2)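 Myeloma cells (500 per well) were exposed to MIPE 4.0 compounds by pin transfer and incubated 48 hours at 37C, 5% CO2. Viability was read as ATP by CellTiter-Glo luminescence, normalised to DMSO (100%) and media-only (0%) wells.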
# [7] = Quantitative High-Throughput drug screen in 47 multiple myeloma cell lines against the NCATS MIPE library collection: KMS20_JCRB cell viability assay (AID 1918973); settings: CellTiter-Glo ATP, 48 h; viability (% of DMSO): at 45.8 µM (top of the series); note: nearly all actives have a fitted effect of over 45% in size
# In short: as §1
# [8] = Quantitative High-Throughput drug screen in 47 multiple myeloma cell lines against the NCATS MIPE library collection: KMS21BM_JCRB cell viability assay (AID 1918974); settings: ATP luminescence, 48 h; viability: at 45.8 µM (top of the series) unless noted
# In short: as §1
# [9] = Quantitative High-Throughput drug screen in 47 multiple myeloma cell lines against the NCATS MIPE library collection: KMS26_JCRB cell viability assay (AID 1918975); settings: KMS26 myeloma cells viability, CellTiter-Glo ATP, 48 h; viability (% of DMSO): at 45.8 µM (top of the series); note: nearly all actives have a fitted effect of over 45% in size
# In short: as §2
# [10] = Quantitative High-Throughput drug screen in 47 multiple myeloma cell lines against the NCATS MIPE library collection: MMM1_PLB cell viability assay (AID 1918976); note: nearly all actives have a fitted effect of over 35% in size
# In short: (§3)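 Cells were exposed to library compounds for 48 hours, after which ATP was measured by CellTiter-Glo. Signal was taken as median relative luminescence units.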
# [11] = Quantitative High-Throughput drug screen in 47 multiple myeloma cell lines against the NCATS MIPE library collection: MOLP8_DSMZ cell viability assay (AID 1918977); settings: MOLP8 myeloma viability, CellTiter-Glo ATP luminescence, 48 h; viability (% of control): at 45.8 µM (top of the series); note: nearly all actives have a fitted effect of over 45% in size
# In short: as §3
# [12] = Quantitative High-Throughput drug screen in 47 multiple myeloma cell lines against the NCATS MIPE library collection: OCIMY1_PLB cell viability assay (AID 1918979); note: nearly all actives have a fitted effect of over 35% in size
# In short: as §3
# [13] = Quantitative High-Throughput drug screen in 47 multiple myeloma cell lines against the NCATS MIPE library collection: MM1S_ATCC cell viability assay (AID 1918980); note: nearly all actives have a fitted effect of over 45% in size
# In short: as §3
# [14] = Quantitative High-Throughput drug screen in 47 multiple myeloma cell lines against the NCATS MIPE library collection: MM1R_ATCC cell viability assay (AID 1918981); note: nearly all actives have a fitted effect of over 35% in size
# In short: as §3
# [15] = Quantitative High-Throughput drug screen in 47 multiple myeloma cell lines against the NCATS MIPE library collection: LP1_DSMZ cell viability assay (AID 1918982); note: nearly all actives have a fitted effect of over 35% in size
# In short: as §3
# [16] = Quantitative High-Throughput drug screen in 47 multiple myeloma cell lines against the NCATS MIPE library collection: KMS28PE_JCRB cell viability assay (AID 1918983); note: nearly all actives have a fitted effect of over 35% in size
# In short: as §3
# [17] = Quantitative High-Throughput drug screen in 47 multiple myeloma cell lines against the NCATS MIPE library collection: Karpas25_ECACC cell viability assay (AID 1918968; note: nearly all actives have a fitted effect of over 35% in size); settings: Karpas25 myeloma viability, CellTiter-Glo ATP, 48 h; viability (% of control): at 45.8 µM (top of the series)
# In short: as §1
# [18] = Quantitative High-Throughput drug screen in 47 multiple myeloma cell lines against the NCATS MIPE library collection: KMS12PE_JCRB cell viability assay (AID 1918972); settings: KMS12PE myeloma viability, CellTiter-Glo ATP, 48 h; viability: at 45.8 µM (top of the series); note: nearly all actives have a fitted effect of over 30% in size
# In short: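 Viability readout: CellTiter-Glo luminescence following 5 min room-temperature incubation with reagent. Prior exposure: 48 h, 37C, humidified 5% CO2, 500 cells per well.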
# [19] = Quantitative High-Throughput drug screen in 47 multiple myeloma cell lines against the NCATS MIPE library collection: NCIH929_DSMZ cell viability assay (AID 1918978); note: nearly all actives have a fitted effect of over 35% in size
# In short: as §3
# Potency is the fitted concentration of half-maximal effect.
Structure (SMILES),Potency [1],Potency [2],Potency [3],Potency [4],Potency [5],Potency [6],Potency [7],Potency [8],Potency [9],Potency [10],Potency [11],Potency [12],Potency [13],Potency [14],Potency [15],Potency [16],Potency [17],Potency [18],Potency [19]
C[C@H]1c2cccc(O)c2C(O)=C2C(=O)[C@]3(O)C(O)=C(C(N)=O)C(=O)[C@@H](N(C)C)[C@@H]3[C@@H](O)[C@@H]21,"inconclusive: 23.5 µM [cytotoxic, partial curve]","inconclusive: 37.2 µM [cytotoxic, single point]","inconclusive: 37.2 µM [cytotoxic, single point]","inconclusive: 26.4 µM [cytotoxic, single point]",inactive,"inconclusive: 29.6 µM [cytotoxic, single point]","inconclusive: 37.2 µM [cytotoxic, single point]","inconclusive: 3.72 µM [rising, full curve]",active: 23.5 µM,"inconclusive: 0.0033 µM [rising, full curve, poor fit]","inconclusive: 9.35 µM [cytotoxic, single point]","inconclusive: 26.4 µM [rising, single point]","inconclusive: 37.2 µM [cytotoxic, single point]","inconclusive: 37.2 µM [cytotoxic, single point]",inactive,"inconclusive: 33.2 µM [cytotoxic, single point]",–,–,–
N[C@@]1(C(=O)O)CS(=O)(=O)[C@H]2[C@H](C(=O)O)[C@H]21,"inconclusive: 8.33 µM [cytotoxic, full curve]","inconclusive: 8.33 µM [cytotoxic, full curve, poor fit]","inconclusive: 0.0372 µM [rising, full curve, poor fit]",–,"inconclusive: 20.9 µM [cytotoxic, partial curve, poor fit]","inconclusive: 0.0066 µM [rising, full curve, poor fit]","inconclusive: 9.35 µM [cytotoxic, full curve, poor fit]",–,"inconclusive: 0.0026 µM [rising, full curve, poor fit]",–,inactive,–,–,"inconclusive: 0.003 µM [rising, full curve, poor fit]","inconclusive: 20.9 µM [cytotoxic, single point]","inconclusive: 0.0023 µM [rising, full curve]","inconclusive: 13.2 µM [cytotoxic, partial curve]","inconclusive: 18.7 µM [cytotoxic, partial curve, poor fit]",–
NC(=O)c1ccc2[nH]ccc2c1,inactive,inactive,"inconclusive: 0.833 µM [cytotoxic, partial curve, poor fit]",–,"inconclusive: 0.0059 µM [cytotoxic, full curve, poor fit]",inactive,"inconclusive: 33.2 µM [cytotoxic, single point]","inconclusive: 37.2 µM [rising, single point]",–,"inconclusive: 14.8 µM [cytotoxic, partial curve, poor fit]","inconclusive: 2.96 µM [cytotoxic, full curve, poor fit]",–,"inconclusive: 2.35 µM [cytotoxic, full curve, poor fit]","inconclusive: 4.69 µM [cytotoxic, full curve, poor fit]",inactive,–,inactive,inactive,–
CC(C)(OCc1nn(Cc2ccccc2)c2ccccc12)C(=O)O,"inconclusive: 23.5 µM [cytotoxic, single point]","inconclusive: 0.0074 µM [rising, full curve, poor fit]","inconclusive: 0.418 µM [cytotoxic, full curve, poor fit]","inconclusive: 37.2 µM [cytotoxic, single point]",inactive,active: 0.418 µM,"inconclusive: 37.2 µM [cytotoxic, partial curve, poor fit]","inconclusive: 33.2 µM [rising, single point]",–,inactive,"inconclusive: 1.48 µM [cytotoxic, partial curve, poor fit]",inactive,–,"inconclusive: 18.7 µM [cytotoxic, partial curve, poor fit]","inconclusive: 23.5 µM [cytotoxic, partial curve, poor fit]","inconclusive: 26.4 µM [cytotoxic, partial curve, poor fit]",–,inactive,"inconclusive: 37.2 µM [cytotoxic, single point]"
NS(=O)(=O)c1ccc(NC2=CC(=O)c3ccccc3C2=O)cc1,active: 18.7 µM,"inconclusive: 0.935 µM [cytotoxic, partial curve, poor fit]","inconclusive: 1.66 µM [cytotoxic, full curve, poor fit]","inconclusive: 20.9 µM [cytotoxic, partial curve]",active: 1.32 µM,inactive,–,"inconclusive: 1.66 µM [cytotoxic, partial curve, poor fit]",active: 3.72 µM,–,inactive,inactive,"inconclusive: 14.8 µM [cytotoxic, partial curve, poor fit]","inconclusive: 3.72 µM [cytotoxic, full curve, poor fit]",–,–,–,active: 0.526 µM,–
